This is an account of results in PMC4678300.

Protein sequences, listed by entry. Tags and fused reporters are not part of them.
UniProt P35568: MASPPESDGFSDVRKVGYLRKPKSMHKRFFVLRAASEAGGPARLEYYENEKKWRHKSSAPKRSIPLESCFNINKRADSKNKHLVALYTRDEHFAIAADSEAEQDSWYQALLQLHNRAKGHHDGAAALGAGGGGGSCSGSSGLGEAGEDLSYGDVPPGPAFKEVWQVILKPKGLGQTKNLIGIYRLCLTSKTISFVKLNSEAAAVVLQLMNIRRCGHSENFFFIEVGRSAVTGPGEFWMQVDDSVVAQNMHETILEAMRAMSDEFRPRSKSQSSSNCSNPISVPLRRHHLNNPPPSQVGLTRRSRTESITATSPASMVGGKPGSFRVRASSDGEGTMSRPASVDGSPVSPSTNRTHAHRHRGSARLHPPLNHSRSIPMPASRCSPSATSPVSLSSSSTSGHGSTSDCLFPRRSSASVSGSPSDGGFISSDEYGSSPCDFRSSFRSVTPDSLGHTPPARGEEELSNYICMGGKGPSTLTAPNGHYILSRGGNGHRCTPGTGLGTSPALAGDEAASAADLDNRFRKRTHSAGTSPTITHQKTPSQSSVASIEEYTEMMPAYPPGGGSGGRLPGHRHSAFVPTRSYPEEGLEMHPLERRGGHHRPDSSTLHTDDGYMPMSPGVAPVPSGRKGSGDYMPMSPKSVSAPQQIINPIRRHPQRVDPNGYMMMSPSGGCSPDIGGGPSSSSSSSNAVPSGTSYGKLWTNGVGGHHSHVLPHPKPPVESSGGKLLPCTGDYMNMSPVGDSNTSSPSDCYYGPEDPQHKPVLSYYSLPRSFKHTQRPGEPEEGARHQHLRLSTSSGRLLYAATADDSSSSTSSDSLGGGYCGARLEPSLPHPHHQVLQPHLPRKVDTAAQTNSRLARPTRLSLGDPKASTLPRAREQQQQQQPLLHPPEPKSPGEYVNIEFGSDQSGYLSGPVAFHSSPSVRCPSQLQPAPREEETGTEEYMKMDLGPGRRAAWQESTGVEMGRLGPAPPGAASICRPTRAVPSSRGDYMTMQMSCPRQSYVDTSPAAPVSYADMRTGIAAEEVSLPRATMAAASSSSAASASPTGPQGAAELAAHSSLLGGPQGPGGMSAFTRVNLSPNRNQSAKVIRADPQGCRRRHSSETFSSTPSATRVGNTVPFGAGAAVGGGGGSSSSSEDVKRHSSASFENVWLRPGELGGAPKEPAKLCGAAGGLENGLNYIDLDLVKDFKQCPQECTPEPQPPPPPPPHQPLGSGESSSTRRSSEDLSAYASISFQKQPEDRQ

The target of assay [1] is T1, PP4 (protein phosphatase 4), endogenous (human (endogenous in HepG2)) (UniProt P60510).
T1 sequence: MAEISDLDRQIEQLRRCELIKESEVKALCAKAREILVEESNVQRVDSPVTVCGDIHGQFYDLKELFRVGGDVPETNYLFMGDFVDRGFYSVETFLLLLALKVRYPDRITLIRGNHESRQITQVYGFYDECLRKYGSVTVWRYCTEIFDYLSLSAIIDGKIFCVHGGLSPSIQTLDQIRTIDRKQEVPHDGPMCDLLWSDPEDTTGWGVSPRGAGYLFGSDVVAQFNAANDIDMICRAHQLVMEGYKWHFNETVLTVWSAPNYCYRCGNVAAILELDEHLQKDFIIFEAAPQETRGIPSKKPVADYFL
The experiment in a line: co-IP; endogenous proteins in HepG2 lysate; lysis in 50 mM Tris-HCl pH 8.0, 1% Nonidet P-40, 120 mM NaCl, 1 mM EDTA, 6 mM EGTA, 1 mM DTT; precipitated with anti-PP4 antibody, IRS-1 detected.

Assay [2] deals with T2, HA-tagged PP4 (protein phosphatase 4) (human) (UniProt P60510).
T2 sequence: T1 sequence
The experiment in a line: co-IP; HA-PP4 transfected into HepG2 cells; lysis in 50 mM Tris-HCl pH 8.0, 1% Nonidet P-40, 120 mM NaCl, 1 mM EDTA, 6 mM EGTA, 1 mM DTT; precipitated with anti-HA antibody, endogenous IRS-1 detected.

No constants are given. Whether binding was seen depends on the method and setting. In cells and extracts the contact can be indirect. Some entries that bind do so weakly or less than the wild type. For some assays here: Tags and fused reporters may be left off the sequences shown.

Take “IRS-1, endogenous (from UniProt P35568 1-1242)”: the binding result in assay [1] and in assay [2] was “binds” in each case.
